{"source": "PubChem BioAssay AID1053208 – Peter MacCallum Cancer Centre – 2014", "assay": "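Genes whose silencing cuts survival of bone tumour cells only with doxorubicin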 (primary screen)", "cells": "mouse osteosarcoma cells, early-passage culture from an engineered mouse model of fibroblastic bone tumour", "knock-down reagent": "siRNA pool against mouse genes, 40 nM", "timing": "about 120 h (48 h before drug, then 72 h with drug)", "conditions": "doxorubicin 100 nM for 72 h, roughly 30-40% inhibitory dose", "measurement": "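Luminescent ATP signal taken as viability with or without 100 nM doxorubicin for 72 h; mean of two wells set against non-targeting siRNA and turned into robust z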", "scale": "viability z-score with doxorubicin: higher = more viable cells under doxorubicin; viability z-score without drug: higher = more viable cells with knock-down alone", "active means": "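a pool counts as active when its viability z-score with doxorubicin is -2 or below and its z-score without drug lies between -2 and 2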", "note": "The deposit covers about 17,000 reagents; this is an unselected part. 788 of all reagents (4.7%) count as active. 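Calls rest on z-score classes alone; an extra cut-off of viability at most 70% of control was not applied to them.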 A reagent listed more than once was tested more than once; the source does not tell the runs apart. Not all columns of the deposit are shown."}
{"Gene":"Fosb","combined z-score class":"no change with or without drug","viability z-score with doxorubicin":-0.22,"viability z-score without drug":0.84,"outcome":"inactive"}
{"Gene":"Mrpl12","combined z-score class":"no change with or without drug","viability z-score with doxorubicin":-0.79,"viability z-score without drug":-1.52,"outcome":"inactive"}
{"Gene":"Tmem185b","combined z-score class":"no change with or without drug","viability z-score with doxorubicin":-1.35,"viability z-score without drug":-0.17,"outcome":"inactive"}
{"Gene":"Rfwd3","combined z-score class":"no change with or without drug","viability z-score with doxorubicin":-0.45,"viability z-score without drug":-0.17,"outcome":"inactive"}
{"Gene":"Cdv3","combined z-score class":"low cell count with doxorubicin only","viability z-score with doxorubicin":-2.25,"viability z-score without drug":-1.35,"outcome":"active"}
{"Gene":"Fbxl21","combined z-score class":"no change with or without drug","viability z-score with doxorubicin":0.67,"viability z-score without drug":1.85,"outcome":"inactive"}
{"Gene":"Prkd2","combined z-score class":"no change with or without drug","viability z-score with doxorubicin":0.22,"viability z-score without drug":-0.51,"outcome":"inactive"}
{"Gene":"Hddc3","combined z-score class":"low cell count without drug only","viability z-score with doxorubicin":-0.9,"viability z-score without drug":-2.19,"outcome":"inactive"}
{"Gene":"Med31","combined z-score class":"high cell count with doxorubicin only","viability z-score with doxorubicin":2.02,"viability z-score without drug":-1.85,"outcome":"inactive"}
{"Gene":"Cradd","combined z-score class":"no change with or without drug","viability z-score with doxorubicin":-0.56,"viability z-score without drug":0.34,"outcome":"inactive"}
{"Gene":"Cpb1","combined z-score class":"no change with or without drug","viability z-score with doxorubicin":0.56,"viability z-score without drug":1.18,"outcome":"inactive"}
{"Gene":"Gpr173","combined z-score class":"no change with or without drug","viability z-score with doxorubicin":0.45,"viability z-score without drug":-1.18,"outcome":"inactive"}
{"Gene":"Gpr173","combined z-score class":"no change with or without drug","viability z-score with doxorubicin":-1.35,"viability z-score without drug":-0.67,"outcome":"inactive"}

Part of the list above in another layout.
Gene | combined z-score class | viability z-score with doxorubicin | viability z-score without drug | outcome
Prkd2 | no change with or without drug | 0.22 | -0.51 | inactive
Hddc3 | low cell count without drug only | -0.9 | -2.19 | inactive
Med31 | high cell count with doxorubicin only | 2.02 | -1.85 | inactive
Cradd | no change with or without drug | -0.56 | 0.34 | inactive

Next records follow:
{"Gene":"Sh3rf3","combined z-score class":"no change with or without drug","viability z-score with doxorubicin":-0.22,"viability z-score without drug":0.51,"outcome":"inactive"}
{"Gene":"Fastkd5","combined z-score class":"no change with or without drug","viability z-score with doxorubicin":-1.46,"viability z-score without drug":0.51,"outcome":"inactive"}
{"Gene":"Pcdha6","combined z-score class":"no change with or without drug","viability z-score with doxorubicin":-1.8,"viability z-score without drug":-1.18,"outcome":"inactive"}
{"Gene":"Pip5kl1","combined z-score class":"no change with or without drug","viability z-score with doxorubicin":-0.22,"viability z-score without drug":1.18,"outcome":"inactive"}
{"Gene":"Zcchc3","combined z-score class":"no change with or without drug","viability z-score with doxorubicin":1.12,"viability z-score without drug":1.52,"outcome":"inactive"}
{"Gene":"Pcbp1","combined z-score class":"no change with or without drug","viability z-score with doxorubicin":-0.9,"viability z-score without drug":-1.18,"outcome":"inactive"}
{"Gene":"Prc1","combined z-score class":"no change with or without drug","viability z-score with doxorubicin":1.46,"viability z-score without drug":-0.17,"outcome":"inactive"}
{"Gene":"Ylpm1","combined z-score class":"high cell count without drug only","viability z-score with doxorubicin":1.12,"viability z-score without drug":2.19,"outcome":"inactive"}
{"Gene":"Siah1a","combined z-score class":"no change with or without drug","viability z-score with doxorubicin":-0.9,"viability z-score without drug":0.34,"outcome":"inactive"}
{"Gene":"Spam1","combined z-score class":"no change with or without drug","viability z-score with doxorubicin":0,"viability z-score without drug":0.17,"outcome":"inactive"}
{"Gene":"Pwp2","combined z-score class":"no change with or without drug","viability z-score with doxorubicin":-1.35,"viability z-score without drug":-1.69,"outcome":"inactive"}
{"Gene":"Pgghg","combined z-score class":"no change with or without drug","viability z-score with doxorubicin":-0.9,"viability z-score without drug":0.34,"outcome":"inactive"}
{"Gene":"Trip4","combined z-score class":"no change with or without drug","viability z-score with doxorubicin":-0.67,"viability z-score without drug":-0.51,"outcome":"inactive"}
{"Gene":"Krtap13-1","combined z-score class":"no change with or without drug","viability z-score with doxorubicin":0,"viability z-score without drug":0.17,"outcome":"inactive"}
{"Gene":"Eef1a1","combined z-score class":"low cell count with doxorubicin only","viability z-score with doxorubicin":-3.48,"viability z-score without drug":-1.85,"outcome":"active"}
